Many values rest on one well or one pass, so single values are uncertain.
Compound: [O-][N+](C(C1=C(C(O)=C2)NC(C(C=C3)=CC=C3Cl)C4C1C=CC4)=C2Cl)=O
Assay: melting temperature shift (compound 7 minus DMSO); higher = compound stabilises the protein
Details: 10 µM
Method: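 Thermal proteome profiling (TMT mass spectrometry) in intact DAOY medulloblastoma cells or DAOY lysates treated with 10 µM compound 7 or DMSO, heated at 10 temperatures from 40.5 to 73.8 °C for 3 min. Melting curves were fitted with the Bioconductor TPP package, and the melting point difference between compound and vehicle is reported per protein (single curve per condition).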

Sequences of proteins named here, by UniProt entry; tags and fusion partners are left off. A change or cut given only in a name is not applied to a line headed by its entry.
UniProt A8CG34, whole entry: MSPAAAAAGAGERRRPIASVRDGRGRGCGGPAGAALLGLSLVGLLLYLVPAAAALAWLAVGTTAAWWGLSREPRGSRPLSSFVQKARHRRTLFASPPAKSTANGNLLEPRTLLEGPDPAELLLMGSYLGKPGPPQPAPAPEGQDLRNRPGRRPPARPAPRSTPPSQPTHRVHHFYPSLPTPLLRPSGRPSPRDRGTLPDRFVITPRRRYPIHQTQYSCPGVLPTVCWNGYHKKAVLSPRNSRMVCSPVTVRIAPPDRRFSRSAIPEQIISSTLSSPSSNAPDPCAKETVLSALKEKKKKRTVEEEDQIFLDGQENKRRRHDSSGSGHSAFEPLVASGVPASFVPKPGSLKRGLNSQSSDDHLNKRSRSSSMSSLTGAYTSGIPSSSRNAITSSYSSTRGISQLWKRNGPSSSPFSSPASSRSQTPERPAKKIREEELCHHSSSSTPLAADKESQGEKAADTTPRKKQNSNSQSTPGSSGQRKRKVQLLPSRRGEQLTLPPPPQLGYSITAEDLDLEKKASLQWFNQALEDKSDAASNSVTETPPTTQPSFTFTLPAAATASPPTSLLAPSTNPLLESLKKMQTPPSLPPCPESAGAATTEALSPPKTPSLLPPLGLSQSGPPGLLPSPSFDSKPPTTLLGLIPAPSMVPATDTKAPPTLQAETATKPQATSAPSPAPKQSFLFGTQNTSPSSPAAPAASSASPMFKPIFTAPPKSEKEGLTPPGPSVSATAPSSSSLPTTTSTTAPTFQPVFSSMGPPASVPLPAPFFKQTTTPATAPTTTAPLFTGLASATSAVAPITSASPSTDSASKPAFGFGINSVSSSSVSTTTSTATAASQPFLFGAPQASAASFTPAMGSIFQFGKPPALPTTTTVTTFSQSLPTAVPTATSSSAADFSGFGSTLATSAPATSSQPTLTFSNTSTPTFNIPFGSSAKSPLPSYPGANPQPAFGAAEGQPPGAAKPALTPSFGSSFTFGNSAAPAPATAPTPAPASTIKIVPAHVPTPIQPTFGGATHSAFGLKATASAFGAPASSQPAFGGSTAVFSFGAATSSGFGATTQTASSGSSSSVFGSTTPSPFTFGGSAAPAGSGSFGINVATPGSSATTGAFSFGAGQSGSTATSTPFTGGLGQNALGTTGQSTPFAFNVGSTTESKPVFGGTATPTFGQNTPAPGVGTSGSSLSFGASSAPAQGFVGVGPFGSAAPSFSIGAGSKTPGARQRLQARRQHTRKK
UniProt Q96ME1: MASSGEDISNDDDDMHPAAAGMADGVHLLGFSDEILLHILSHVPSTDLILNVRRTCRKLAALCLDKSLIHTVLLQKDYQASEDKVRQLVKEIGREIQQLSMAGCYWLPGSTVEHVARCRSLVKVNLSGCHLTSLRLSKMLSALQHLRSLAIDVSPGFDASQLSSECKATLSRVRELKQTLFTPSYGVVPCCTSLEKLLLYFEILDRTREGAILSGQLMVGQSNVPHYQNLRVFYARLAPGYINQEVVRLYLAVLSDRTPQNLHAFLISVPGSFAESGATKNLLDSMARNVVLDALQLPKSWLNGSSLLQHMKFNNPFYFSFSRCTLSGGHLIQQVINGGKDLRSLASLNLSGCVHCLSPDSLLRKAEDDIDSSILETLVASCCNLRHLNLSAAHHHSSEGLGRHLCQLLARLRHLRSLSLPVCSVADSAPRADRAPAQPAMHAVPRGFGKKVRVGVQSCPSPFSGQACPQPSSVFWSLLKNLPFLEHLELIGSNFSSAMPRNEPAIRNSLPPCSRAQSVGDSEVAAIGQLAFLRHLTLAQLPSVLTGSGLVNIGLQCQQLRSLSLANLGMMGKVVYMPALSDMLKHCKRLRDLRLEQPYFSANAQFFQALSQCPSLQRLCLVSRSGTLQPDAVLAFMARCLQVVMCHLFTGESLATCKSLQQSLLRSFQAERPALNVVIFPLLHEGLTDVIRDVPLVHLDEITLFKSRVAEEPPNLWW
UniProt P28482, whole entry: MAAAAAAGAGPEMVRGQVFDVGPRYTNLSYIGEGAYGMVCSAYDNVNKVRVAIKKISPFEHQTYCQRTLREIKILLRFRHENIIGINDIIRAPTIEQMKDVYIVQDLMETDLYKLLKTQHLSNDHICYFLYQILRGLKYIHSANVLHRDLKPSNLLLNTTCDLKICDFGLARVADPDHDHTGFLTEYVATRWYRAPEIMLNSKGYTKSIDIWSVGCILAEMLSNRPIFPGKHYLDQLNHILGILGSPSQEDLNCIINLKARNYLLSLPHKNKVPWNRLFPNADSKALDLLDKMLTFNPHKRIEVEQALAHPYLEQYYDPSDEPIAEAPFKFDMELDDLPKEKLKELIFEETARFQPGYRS
UniProt Q8IVF7, whole entry: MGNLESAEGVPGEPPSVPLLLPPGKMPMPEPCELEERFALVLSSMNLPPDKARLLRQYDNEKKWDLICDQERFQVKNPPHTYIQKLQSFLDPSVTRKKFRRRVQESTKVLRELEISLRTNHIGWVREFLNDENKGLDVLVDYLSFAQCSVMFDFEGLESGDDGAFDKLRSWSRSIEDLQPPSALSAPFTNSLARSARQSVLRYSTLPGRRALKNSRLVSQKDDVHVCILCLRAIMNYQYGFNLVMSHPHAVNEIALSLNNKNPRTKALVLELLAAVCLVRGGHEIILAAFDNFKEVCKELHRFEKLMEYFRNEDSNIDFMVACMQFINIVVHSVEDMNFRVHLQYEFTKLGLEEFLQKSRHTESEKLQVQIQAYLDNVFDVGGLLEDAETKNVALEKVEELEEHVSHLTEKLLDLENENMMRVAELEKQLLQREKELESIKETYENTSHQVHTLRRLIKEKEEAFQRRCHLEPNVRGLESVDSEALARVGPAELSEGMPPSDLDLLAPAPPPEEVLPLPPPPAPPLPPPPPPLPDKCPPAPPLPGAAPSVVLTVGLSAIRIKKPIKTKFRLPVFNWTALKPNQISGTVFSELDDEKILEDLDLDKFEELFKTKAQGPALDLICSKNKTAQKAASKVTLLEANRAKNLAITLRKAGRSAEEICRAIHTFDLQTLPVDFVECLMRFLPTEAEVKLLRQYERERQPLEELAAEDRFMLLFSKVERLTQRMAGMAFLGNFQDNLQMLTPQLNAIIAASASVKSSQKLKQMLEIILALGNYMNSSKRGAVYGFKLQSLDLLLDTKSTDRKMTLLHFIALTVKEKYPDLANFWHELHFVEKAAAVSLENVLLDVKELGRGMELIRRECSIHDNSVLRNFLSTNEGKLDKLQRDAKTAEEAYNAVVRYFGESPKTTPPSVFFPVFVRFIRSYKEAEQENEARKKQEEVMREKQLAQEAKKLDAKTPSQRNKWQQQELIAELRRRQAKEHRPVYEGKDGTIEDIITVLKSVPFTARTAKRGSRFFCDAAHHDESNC
UniProt P37802: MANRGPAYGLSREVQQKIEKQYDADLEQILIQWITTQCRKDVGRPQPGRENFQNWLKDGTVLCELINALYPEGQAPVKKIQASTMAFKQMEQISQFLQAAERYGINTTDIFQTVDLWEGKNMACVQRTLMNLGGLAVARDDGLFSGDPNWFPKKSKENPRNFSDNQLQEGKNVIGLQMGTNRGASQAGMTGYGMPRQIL
UniProt Q86Y82: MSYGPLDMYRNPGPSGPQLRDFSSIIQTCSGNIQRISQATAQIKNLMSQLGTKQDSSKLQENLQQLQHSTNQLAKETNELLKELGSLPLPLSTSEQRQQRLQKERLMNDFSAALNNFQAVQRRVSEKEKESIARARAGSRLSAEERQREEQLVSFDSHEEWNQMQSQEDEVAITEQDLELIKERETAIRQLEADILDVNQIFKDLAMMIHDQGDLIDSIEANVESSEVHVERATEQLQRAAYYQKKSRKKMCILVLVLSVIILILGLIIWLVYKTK
UniProt Q9BUP0: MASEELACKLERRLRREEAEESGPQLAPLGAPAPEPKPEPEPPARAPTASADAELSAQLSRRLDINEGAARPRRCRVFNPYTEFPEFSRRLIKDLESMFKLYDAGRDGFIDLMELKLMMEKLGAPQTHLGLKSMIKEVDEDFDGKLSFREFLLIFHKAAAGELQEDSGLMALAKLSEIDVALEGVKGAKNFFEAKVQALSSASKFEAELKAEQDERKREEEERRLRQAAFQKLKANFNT
UniProt Q9Y5T4: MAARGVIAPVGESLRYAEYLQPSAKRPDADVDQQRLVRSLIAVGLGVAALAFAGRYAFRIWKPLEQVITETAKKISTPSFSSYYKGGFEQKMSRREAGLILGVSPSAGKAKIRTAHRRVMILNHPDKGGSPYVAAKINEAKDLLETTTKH
UniProt P42773: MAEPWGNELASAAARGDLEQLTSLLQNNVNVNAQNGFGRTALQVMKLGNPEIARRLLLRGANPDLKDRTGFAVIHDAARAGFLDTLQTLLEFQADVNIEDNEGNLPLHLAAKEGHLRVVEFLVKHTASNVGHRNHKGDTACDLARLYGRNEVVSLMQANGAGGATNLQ
UniProt Q05048: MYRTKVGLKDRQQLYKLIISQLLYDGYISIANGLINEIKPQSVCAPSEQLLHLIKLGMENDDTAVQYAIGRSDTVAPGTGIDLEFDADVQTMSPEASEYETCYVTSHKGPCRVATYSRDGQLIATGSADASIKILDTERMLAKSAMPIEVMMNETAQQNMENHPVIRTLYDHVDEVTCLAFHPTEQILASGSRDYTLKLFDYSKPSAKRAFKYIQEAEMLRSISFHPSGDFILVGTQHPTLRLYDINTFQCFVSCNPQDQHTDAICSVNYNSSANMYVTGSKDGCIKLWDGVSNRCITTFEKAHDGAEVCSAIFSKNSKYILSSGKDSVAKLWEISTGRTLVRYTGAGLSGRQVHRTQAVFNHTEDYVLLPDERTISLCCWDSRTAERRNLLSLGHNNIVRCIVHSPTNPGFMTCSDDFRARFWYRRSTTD
UniProt P08572: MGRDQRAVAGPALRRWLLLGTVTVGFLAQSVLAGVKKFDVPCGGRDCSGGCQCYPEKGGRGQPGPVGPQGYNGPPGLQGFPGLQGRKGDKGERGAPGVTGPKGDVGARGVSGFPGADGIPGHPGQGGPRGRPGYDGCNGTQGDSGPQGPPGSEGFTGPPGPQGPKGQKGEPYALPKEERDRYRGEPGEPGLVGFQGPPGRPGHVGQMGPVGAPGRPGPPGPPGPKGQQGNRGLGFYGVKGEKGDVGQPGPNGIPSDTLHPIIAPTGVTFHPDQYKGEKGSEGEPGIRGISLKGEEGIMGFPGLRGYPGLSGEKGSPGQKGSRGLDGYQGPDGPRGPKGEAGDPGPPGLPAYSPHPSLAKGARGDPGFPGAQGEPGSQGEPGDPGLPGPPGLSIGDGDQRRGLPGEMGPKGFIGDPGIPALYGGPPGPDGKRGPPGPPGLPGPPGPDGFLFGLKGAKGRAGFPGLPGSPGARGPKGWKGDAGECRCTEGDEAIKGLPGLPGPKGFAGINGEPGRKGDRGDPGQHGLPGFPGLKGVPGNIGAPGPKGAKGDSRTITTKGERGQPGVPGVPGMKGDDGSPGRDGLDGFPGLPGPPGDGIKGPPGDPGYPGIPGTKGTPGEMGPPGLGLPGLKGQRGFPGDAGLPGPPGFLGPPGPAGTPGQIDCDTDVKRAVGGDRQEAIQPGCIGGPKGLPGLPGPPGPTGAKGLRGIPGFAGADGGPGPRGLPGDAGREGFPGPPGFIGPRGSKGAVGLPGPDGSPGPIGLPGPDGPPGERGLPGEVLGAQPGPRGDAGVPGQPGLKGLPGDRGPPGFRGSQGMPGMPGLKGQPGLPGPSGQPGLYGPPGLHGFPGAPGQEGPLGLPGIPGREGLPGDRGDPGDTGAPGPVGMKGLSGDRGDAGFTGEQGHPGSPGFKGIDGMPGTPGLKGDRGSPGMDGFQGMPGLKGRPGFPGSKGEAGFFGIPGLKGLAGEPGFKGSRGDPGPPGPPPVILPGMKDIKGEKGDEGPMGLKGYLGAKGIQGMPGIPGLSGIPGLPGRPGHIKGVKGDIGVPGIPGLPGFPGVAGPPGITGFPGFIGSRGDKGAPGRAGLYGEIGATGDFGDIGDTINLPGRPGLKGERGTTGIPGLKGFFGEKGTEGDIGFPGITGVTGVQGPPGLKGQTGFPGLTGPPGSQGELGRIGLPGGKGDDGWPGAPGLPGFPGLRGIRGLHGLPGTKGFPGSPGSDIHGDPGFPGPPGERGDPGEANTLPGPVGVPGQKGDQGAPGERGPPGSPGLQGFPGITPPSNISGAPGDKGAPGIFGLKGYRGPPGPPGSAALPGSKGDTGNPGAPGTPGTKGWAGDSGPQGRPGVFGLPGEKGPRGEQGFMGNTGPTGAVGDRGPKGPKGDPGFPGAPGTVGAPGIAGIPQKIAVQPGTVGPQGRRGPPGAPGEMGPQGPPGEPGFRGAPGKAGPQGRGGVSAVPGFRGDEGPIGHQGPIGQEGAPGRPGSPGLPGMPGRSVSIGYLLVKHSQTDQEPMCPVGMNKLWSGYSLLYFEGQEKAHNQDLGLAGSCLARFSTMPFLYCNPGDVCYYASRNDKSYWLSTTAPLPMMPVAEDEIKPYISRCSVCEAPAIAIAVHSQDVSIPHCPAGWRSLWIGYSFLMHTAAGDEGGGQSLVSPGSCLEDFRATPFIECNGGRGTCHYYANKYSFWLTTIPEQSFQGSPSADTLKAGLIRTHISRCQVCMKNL

[1] = system: DAOY cell lysate, treatment time: 20 min, 4 °C
[2] = system: intact DAOY cells, treatment time: 90 min, 37 °C

DCAF15 (UniProt Q66K64) showed a melting temperature shift [1] of -1.11 °C and a melting temperature shift [2] of 0.897 °C.

With GOLGA3 (UniProt Q08378) the melting temperature shift [1] was -0.258 °C and the melting temperature shift [2] was 0.543 °C.

PLXNA1 (UniProt Q9UIW2) was tested, and the melting temperature shift [1] was 0.0924 °C and the melting temperature shift [2] was -0.329 °C.

For RNASEH2C (UniProt Q8TDP1), the melting temperature shift [1] was -0.951 °C and the melting temperature shift [2] was 0.0444 °C.

GNL1 (UniProt P36915) showed a melting temperature shift [1] of 0.0743 °C and a melting temperature shift [2] of -1.11 °C.

CCT6A (UniProt P40227) showed a melting temperature shift [1] of -0.441 °C and a melting temperature shift [2] of -0.0971 °C.

In the case of UniProt P78527, the melting temperature shift [1] is reported as -0.413 °C and the melting temperature shift [2] is reported as -1.53 °C.

Work on MFAP1 (UniProt P55081) yielded a melting temperature shift [1] of 1.88 °C.

In the case of GMEB2 (UniProt Q9UKD1), the melting temperature shift [1] is reported as -1.84 °C.

MAN2B1 (UniProt O00754) was tested, and the melting temperature shift [1] was 1.25 °C.

UniProt Q59GN2 showed a melting temperature shift [2] of 1.57 °C.

UniProt Q9BVG4 was tested, and the melting temperature shift [1] was -0.917 °C and the melting temperature shift [2] was 0.837 °C.

OGT (UniProt O15294) was tested, and the melting temperature shift [1] was -0.617 °C and the melting temperature shift [2] was -0.44 °C.

UniProt P09086 was tested, and the melting temperature shift [2] was -0.964 °C.

CSK (UniProt P41240) showed a melting temperature shift [1] of -0.445 °C and a melting temperature shift [2] of -0.126 °C.

For GRAMD1A (UniProt Q96CP6), the melting temperature shift [2] was 2.58 °C.

VIPAS39 (UniProt Q9H9C1) was tested, and the melting temperature shift [1] was -0.614 °C and the melting temperature shift [2] was -0.271 °C.

CMAS (UniProt Q8NFW8) showed a melting temperature shift [1] of 0.0719 °C and a melting temperature shift [2] of -0.795 °C.

In the case of VDAC1 (UniProt P21796), the melting temperature shift [1] is reported as 3.09 °C and the melting temperature shift [2] is reported as 0.388 °C.

In the case of HERC2 (UniProt O95714), the melting temperature shift [1] is reported as 0.0135 °C and the melting temperature shift [2] is reported as 0.834 °C.

UniProt P13591 showed a melting temperature shift [1] of 2.48 °C.

Target SHTN1 (UniProt A0MZ66) has a melting temperature shift [1] of -0.513 °C and a melting temperature shift [2] of -0.449 °C.

Work on PSMD3 (UniProt O43242) yielded a melting temperature shift [1] of -0.515 °C and a melting temperature shift [2] of -1.32 °C.

ANKLE2 (UniProt Q86XL3) gave a melting temperature shift [1] of 0.685 °C and a melting temperature shift [2] of -0.0517 °C.

HNRNPH3 (UniProt P31942) was tested, and the melting temperature shift [1] was -0.226 °C and the melting temperature shift [2] was -0.413 °C.

Target CTPS2 (UniProt Q9NRF8) has a melting temperature shift [1] of -1.02 °C and a melting temperature shift [2] of -0.504 °C.

Target PPIF (UniProt P30405) has a melting temperature shift [1] of 0.46 °C and a melting temperature shift [2] of -0.00289 °C.

With POM121C (UniProt A8CG34) the melting temperature shift [1] was -0.481 °C.

FBXL18 (UniProt Q96ME1) showed a melting temperature shift [1] of -0.0779 °C and a melting temperature shift [2] of -1.63 °C.

For GTF2F2 (UniProt P13984), the melting temperature shift [1] was -0.516 °C and the melting temperature shift [2] was -0.658 °C.

AP2B1 (UniProt P63010) gave a melting temperature shift [1] of -0.233 °C and a melting temperature shift [2] of -0.114 °C.

A0A0U1RRI6, A0A0U1RRI6 was tested, and the melting temperature shift [2] was -0.554 °C.

RUFY2 (UniProt Q8WXA3) gave a melting temperature shift [1] of -1.24 °C and a melting temperature shift [2] of 1.57 °C.

In the case of ELP6 (UniProt Q0PNE2), the melting temperature shift [1] is reported as -0.793 °C and the melting temperature shift [2] is reported as 2.01 °C.

With NKIRAS2 (UniProt Q9NYR9) the melting temperature shift [1] was 0.27 °C.

With CDC42BPA (UniProt Q5VT25) the melting temperature shift [2] was -0.0948 °C.

UniProt Q86SK9 was tested, and the melting temperature shift [1] was 1.06 °C.

With UniProt O00255 the melting temperature shift [1] was 1.21 °C.

PDE12 (UniProt Q6L8Q7) showed a melting temperature shift [1] of -0.621 °C and a melting temperature shift [2] of 0.364 °C.

POLR3D (UniProt P05423) gave a melting temperature shift [1] of -1.49 °C.

Work on MTIF2 (UniProt P46199) yielded a melting temperature shift [1] of 0.23 °C and a melting temperature shift [2] of 3.15 °C.

Work on NPLOC4 (UniProt Q8TAT6) yielded a melting temperature shift [1] of -0.196 °C and a melting temperature shift [2] of -0.766 °C.

For ERLEC1 (UniProt Q96DZ1), the melting temperature shift [1] was 0.977 °C and the melting temperature shift [2] was -0.0874 °C.

With STAU2 (UniProt Q9NUL3) the melting temperature shift [1] was -0.58 °C and the melting temperature shift [2] was 0.00602 °C.

Target UniProt O14757 has a melting temperature shift [1] of 0.222 °C and a melting temperature shift [2] of -0.598 °C.

For PIP4K2A (UniProt P48426), the melting temperature shift [1] was -0.644 °C and the melting temperature shift [2] was -0.856 °C.

CCT3 (UniProt P49368) gave a melting temperature shift [1] of -0.328 °C and a melting temperature shift [2] of -0.433 °C.

Target EML4 (UniProt Q9HC35) has a melting temperature shift [1] of -0.399 °C and a melting temperature shift [2] of 0.0243 °C.

SH3GL2 (UniProt Q99962) gave a melting temperature shift [2] of -0.378 °C.

For GFPT1 (UniProt Q06210), the melting temperature shift [1] was -0.548 °C and the melting temperature shift [2] was 0.411 °C.

With NT5C3A (UniProt Q9H0P0) the melting temperature shift [1] was -0.13 °C and the melting temperature shift [2] was 0.276 °C.

THOC3 (UniProt Q96J01) showed a melting temperature shift [1] of -0.0245 °C and a melting temperature shift [2] of 0.481 °C.

UniProt P28482 showed a melting temperature shift [1] of -0.439 °C and a melting temperature shift [2] of 0.118 °C.

MRPL39 (UniProt Q9NYK5) showed a melting temperature shift [1] of 0.527 °C and a melting temperature shift [2] of 0.0898 °C.

In the case of DPH6 (UniProt Q7L8W6), the melting temperature shift [1] is reported as -0.856 °C and the melting temperature shift [2] is reported as -0.168 °C.

LRRC8D (UniProt Q7L1W4) gave a melting temperature shift [1] of 0.119 °C and a melting temperature shift [2] of 0.639 °C.

Work on UniProt O76075 yielded a melting temperature shift [2] of -1.2 °C.

In the case of PPP2CB (UniProt P62714), the melting temperature shift [1] is reported as 0.598 °C and the melting temperature shift [2] is reported as 0.121 °C.

For PDSS2 (UniProt Q86YH6), the melting temperature shift [1] was -0.329 °C and the melting temperature shift [2] was -0.738 °C.

For UniProt Q8IVF7, the melting temperature shift [1] was -0.0975 °C and the melting temperature shift [2] was 0.374 °C.

SYNJ1 (UniProt O43426) was tested, and the melting temperature shift [1] was -0.72 °C and the melting temperature shift [2] was -0.431 °C.

Target TAGLN2 (UniProt P37802) has a melting temperature shift [1] of -1.12 °C and a melting temperature shift [2] of -0.665 °C.

UniProt Q8IVS2 was tested, and the melting temperature shift [1] was 1.21 °C and the melting temperature shift [2] was 1.44 °C.

In the case of UniProt Q92834, the melting temperature shift [2] is reported as -3.37 °C.

STX12 (UniProt Q86Y82) was tested, and the melting temperature shift [1] was 1.85 °C.

Target UniProt O60641 has a melting temperature shift [2] of 0.939 °C.

With UniProt Q9ULQ0 the melting temperature shift [2] was 0.656 °C.

Work on PDXP (UniProt Q96GD0) yielded a melting temperature shift [1] of -3.92 °C and a melting temperature shift [2] of -0.296 °C.

UniProt Q9BUP0 showed a melting temperature shift [2] of -0.881 °C.

DNAJC15 (UniProt Q9Y5T4) showed a melting temperature shift [1] of 1.81 °C.

Work on NOP58 (UniProt Q9Y2X3) yielded a melting temperature shift [1] of 0.913 °C and a melting temperature shift [2] of 1.25 °C.

RNF213 (UniProt Q63HN8) gave a melting temperature shift [1] of -0.675 °C and a melting temperature shift [2] of -0.695 °C.

UBE2E3 (UniProt Q969T4) gave a melting temperature shift [1] of 0.793 °C and a melting temperature shift [2] of -1.18 °C.

In the case of SBDS (UniProt Q9Y3A5), the melting temperature shift [1] is reported as -0.466 °C and the melting temperature shift [2] is reported as -0.102 °C.

UniProt O60260 showed a melting temperature shift [2] of 0.414 °C.

In the case of UniProt Q8WXI2, the melting temperature shift [1] is reported as -1.07 °C and the melting temperature shift [2] is reported as 0.486 °C.

With UniProt P42773 the melting temperature shift [1] was 0.804 °C.

With PUDP (UniProt Q08623) the melting temperature shift [1] was -0.0784 °C.

ARL8B (UniProt Q9NVJ2) gave a melting temperature shift [1] of 1.1 °C and a melting temperature shift [2] of -0.659 °C.

With UniProt Q96NE9 the melting temperature shift [1] was 0.905 °C and the melting temperature shift [2] was 1.21 °C.

LARP4B (UniProt Q92615) showed a melting temperature shift [1] of -0.155 °C and a melting temperature shift [2] of 0.884 °C.

UniProt Q5VYK3 gave a melting temperature shift [1] of -0.61 °C and a melting temperature shift [2] of -0.446 °C.

With CSTF1 (UniProt Q05048) the melting temperature shift [1] was -0.0219 °C and the melting temperature shift [2] was 0.492 °C.

SSR1 (UniProt P43307) was tested, and the melting temperature shift [1] was 1.19 °C and the melting temperature shift [2] was -1.06 °C.

Target COL4A2 (UniProt P08572) has a melting temperature shift [1] of 1.5 °C and a melting temperature shift [2] of 0.612 °C.

With NOL7 (UniProt Q9UMY1) the melting temperature shift [1] was 1.19 °C and the melting temperature shift [2] was -0.025 °C.

In the case of CHML (UniProt P26374), the melting temperature shift [1] is reported as -0.759 °C and the melting temperature shift [2] is reported as 0.872 °C.

Target UniProt Q96C03 has a melting temperature shift [2] of -0.924 °C.

In the case of CHCHD3 (UniProt Q9NX63), the melting temperature shift [1] is reported as 2.91 °C and the melting temperature shift [2] is reported as -0.187 °C.

With UniProt Q969R5 the melting temperature shift [1] was 2.75 °C.

From the supplement of paper PMC10060354, “Discovery of a small molecule ligand of FRS2 that inhibits invasion and tumor growth” (Cellular Oncology, 2022)
